The values below come from publication PMC9673352.

Test [1] has as its target T1, GBD-Ckb2 (S. cerevisiae) (UniProt P38930).
T1 sequence: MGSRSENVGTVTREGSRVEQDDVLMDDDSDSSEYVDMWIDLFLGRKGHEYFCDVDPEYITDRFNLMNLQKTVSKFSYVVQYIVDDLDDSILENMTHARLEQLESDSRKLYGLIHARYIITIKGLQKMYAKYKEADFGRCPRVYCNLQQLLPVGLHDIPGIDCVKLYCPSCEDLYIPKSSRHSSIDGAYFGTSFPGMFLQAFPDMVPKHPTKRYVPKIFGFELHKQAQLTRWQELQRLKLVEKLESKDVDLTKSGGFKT
The test can be described thus: two-hybrid; strain Y190; CK2 subunits fused to GBD, IN or IN regions fused to GAD; SC lacking Leu, Trp, His with 0.2 mM 3-Amino-1,2,4-triazole, 2 days at 30 °C; LacZ reporter by X-Gal overlay.

Test [2] addresses T2, GBD-Cka2 (S. cerevisiae) (UniProt P19454).
T2 sequence: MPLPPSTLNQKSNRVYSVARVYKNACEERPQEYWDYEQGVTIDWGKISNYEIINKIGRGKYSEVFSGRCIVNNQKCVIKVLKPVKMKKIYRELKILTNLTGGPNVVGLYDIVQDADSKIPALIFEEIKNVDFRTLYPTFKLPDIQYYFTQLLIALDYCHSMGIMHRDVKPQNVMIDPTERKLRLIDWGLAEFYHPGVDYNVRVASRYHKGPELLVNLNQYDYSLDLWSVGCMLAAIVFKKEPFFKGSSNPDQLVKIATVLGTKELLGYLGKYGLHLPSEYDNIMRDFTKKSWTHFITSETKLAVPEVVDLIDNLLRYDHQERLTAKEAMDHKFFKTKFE
Described as above.

The target of test [3] is T3, TAP-YKR011C (S. cerevisiae) (UniProt Q02209).
T3 sequence: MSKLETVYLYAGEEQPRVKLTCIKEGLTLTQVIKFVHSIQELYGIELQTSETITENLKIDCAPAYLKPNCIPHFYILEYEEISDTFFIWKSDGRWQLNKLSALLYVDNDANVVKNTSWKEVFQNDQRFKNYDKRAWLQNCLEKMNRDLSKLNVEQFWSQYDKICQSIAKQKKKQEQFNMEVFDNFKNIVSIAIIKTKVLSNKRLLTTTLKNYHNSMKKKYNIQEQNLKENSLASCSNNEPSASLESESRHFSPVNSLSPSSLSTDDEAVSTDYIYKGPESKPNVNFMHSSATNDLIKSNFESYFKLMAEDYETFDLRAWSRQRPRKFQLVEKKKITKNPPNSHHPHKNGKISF
Nature of the test: co-IP; whole-cell extracts of exponentially growing yeast; TAP-tagged proteins precipitated on IgG magnetic beads, 2 h at 4 °C, IP buffer 50 mM HEPES-KOH pH 7.5, 300 mM NaCl, 1 mM EDTA, 0.05% NP40; Western blot. In general terms: In western blotting, separated proteins are transferred to a membrane and probed.

Test [4] concerns the target T4, TAP-tagged Ckb1 (S. cerevisiae) (UniProt P43639).
T4 sequence: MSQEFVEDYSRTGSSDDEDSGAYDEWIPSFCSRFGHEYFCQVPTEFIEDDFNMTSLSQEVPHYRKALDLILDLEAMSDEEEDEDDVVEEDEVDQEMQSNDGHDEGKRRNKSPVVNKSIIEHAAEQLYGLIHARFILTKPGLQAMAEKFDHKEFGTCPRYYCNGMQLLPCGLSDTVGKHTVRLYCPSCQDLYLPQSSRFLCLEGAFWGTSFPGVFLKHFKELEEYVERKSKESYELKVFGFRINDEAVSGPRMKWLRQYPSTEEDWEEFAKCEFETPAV
The test is described as above.

For test [5], the target named is T5, TAP-tagged Cka2 (S. cerevisiae) (UniProt P19454).
T5 sequence: T2 sequence
The test is described as above.

For test [6], the target named is T6, TAP-tagged Ckb2 (S. cerevisiae) (UniProt P38930).
T6 sequence: T1 sequence
The test is described as above.

No constants are given. Whether binding was seen depends on the method and setting. For part of these data: Binding can be weak; no strength is given. For part of these data: Binding seen in cells or lysates may run through a third protein. For part of these data: Where a sequence is shown, tags or fusion partners need not be part of it.

Take “C-terminal fragment of IN (amino acids 578-635) fused to GAD (S. cerevisiae) (domain or fragment)”: the binding result in test [1] is recorded as “no binding”. As to “Full-length Ty1 IN with a C-tag at its C-terminus, fused to the GAL4 activating domain (S. cerevisiae) (enzyme)”, the figures for the binding result in test [2] and in test [1] were “no binding” and “binds”, respectively. In the case of “Full-length Ty1 IN without C-tag, fused to the GAL4 activating domain (S. cerevisiae) (enzyme)”, the binding result in test [1] was “no binding”. Still for that read-out and setting: under “GAD-IN(1-578) (S. cerevisiae) (domain or fragment)” stands “binds”; under “GAD-IN(386-511) (S. cerevisiae) (domain or fragment)”, “binds”. As to “Ty1 integrase expressed from a functional Ty1 element (processed from Gag-Pol) (S. cerevisiae) (enzyme)”, the values for the binding entry in test [3], in test [4] and in test [5] were “no binding”, “binds” and “binds”, respectively. Turning to “Ty1 integrase with a C-terminal histidine-biotin-histidine (HBH) tag (S. cerevisiae) (enzyme)”, the binding result in test [6], in test [4] and in test [5] was “binds” throughout.
